No end group written: not given here.
Experiment: general procedure: Boc solid-phase peptide synthesis; MBHA; dicyclohexylcarbodiimide
Details: whole synthesis, 215 nm

Substance: HCKFWW-NH2
- final HPLC purity: greater than 90% pure
